We go through 5 sequences from paper PMC11896966.

The exact form of at least one protein or probe is not confirmed.

In data set [1] the target is GST-SlNOR (NAC domain-containing truncation) (Solanum lycopersicum (tomato)) (UniProt A0A3Q7J5X6). Briefly: EMSA. To be noted: EMSA with biotin-labelled oligonucleotides; pH and temperature not given; recombinant protein; protein details: GST (pGEX); label: biotin. On the technique in general: A gel shift assay detects complexes by their altered migration in electrophoresis.

In data set [2] the test system is GST-SlNOR-like1 (Solanum lycopersicum (tomato)). Description: EMSA. To be noted: EMSA with biotin-labelled oligonucleotides; pH and temperature not given; recombinant protein; protein details: GST (pGEX); label: biotin.

Regarding “ACATTTCGTAGAGAATTTCATTACGTCTACTTTAATATCTTTAATTTTCT (double strand) [SlCER1 promoter probe wild]”, the binding result in data set [1] and in data set [2] was “binds” each time.
As to “CCCCTAAGTATTATCAGAACACACGTAAATGAAAGGGCGACAGATATTTC (double strand) [SlABCG8 promoter probe wild]”, the binding result in data set [1] and in data set [2] was “binds” each time.
With “GATTCGTAATTTTACAATGTAATGTGCATTTACGTAATCAAGTTATATGC (double strand) [SlABCG9 promoter probe wild]”, the binding result in data set [1] and in data set [2] was “binds” in each case.
In the case of “GTACAAATAGTCAAGTTTACATTACGTATCCAAACTTTATGTCATTATTA (double strand) [SlABCG23 promoter probe wild]”, the binding result in data set [1] and in data set [2] was “binds” each time.
With “TATTATACTACTAGTCAATAACACGCAATGCATACATGACTTAATATCTT (double strand) [SlGRP92 promoter probe wild]”, the binding result in data set [1] and in data set [2] was “binds” each time.
